These are yes or no findings as the source states them, for the method shown. In cells and extracts the contact can be indirect. Here binding means that the protein was enriched with, or labelled near, the bait; the list need not be complete. For part of these data: A no says only that the protein was not detected with the bait. For part of these data: Sequences can lack the tags named with a protein.

Chains of the proteins cited; added tags and fusions are not shown. Lines headed by an entry give the natural chain unless they say otherwise; changes in a name come on top.
UniProt Q9HAU5: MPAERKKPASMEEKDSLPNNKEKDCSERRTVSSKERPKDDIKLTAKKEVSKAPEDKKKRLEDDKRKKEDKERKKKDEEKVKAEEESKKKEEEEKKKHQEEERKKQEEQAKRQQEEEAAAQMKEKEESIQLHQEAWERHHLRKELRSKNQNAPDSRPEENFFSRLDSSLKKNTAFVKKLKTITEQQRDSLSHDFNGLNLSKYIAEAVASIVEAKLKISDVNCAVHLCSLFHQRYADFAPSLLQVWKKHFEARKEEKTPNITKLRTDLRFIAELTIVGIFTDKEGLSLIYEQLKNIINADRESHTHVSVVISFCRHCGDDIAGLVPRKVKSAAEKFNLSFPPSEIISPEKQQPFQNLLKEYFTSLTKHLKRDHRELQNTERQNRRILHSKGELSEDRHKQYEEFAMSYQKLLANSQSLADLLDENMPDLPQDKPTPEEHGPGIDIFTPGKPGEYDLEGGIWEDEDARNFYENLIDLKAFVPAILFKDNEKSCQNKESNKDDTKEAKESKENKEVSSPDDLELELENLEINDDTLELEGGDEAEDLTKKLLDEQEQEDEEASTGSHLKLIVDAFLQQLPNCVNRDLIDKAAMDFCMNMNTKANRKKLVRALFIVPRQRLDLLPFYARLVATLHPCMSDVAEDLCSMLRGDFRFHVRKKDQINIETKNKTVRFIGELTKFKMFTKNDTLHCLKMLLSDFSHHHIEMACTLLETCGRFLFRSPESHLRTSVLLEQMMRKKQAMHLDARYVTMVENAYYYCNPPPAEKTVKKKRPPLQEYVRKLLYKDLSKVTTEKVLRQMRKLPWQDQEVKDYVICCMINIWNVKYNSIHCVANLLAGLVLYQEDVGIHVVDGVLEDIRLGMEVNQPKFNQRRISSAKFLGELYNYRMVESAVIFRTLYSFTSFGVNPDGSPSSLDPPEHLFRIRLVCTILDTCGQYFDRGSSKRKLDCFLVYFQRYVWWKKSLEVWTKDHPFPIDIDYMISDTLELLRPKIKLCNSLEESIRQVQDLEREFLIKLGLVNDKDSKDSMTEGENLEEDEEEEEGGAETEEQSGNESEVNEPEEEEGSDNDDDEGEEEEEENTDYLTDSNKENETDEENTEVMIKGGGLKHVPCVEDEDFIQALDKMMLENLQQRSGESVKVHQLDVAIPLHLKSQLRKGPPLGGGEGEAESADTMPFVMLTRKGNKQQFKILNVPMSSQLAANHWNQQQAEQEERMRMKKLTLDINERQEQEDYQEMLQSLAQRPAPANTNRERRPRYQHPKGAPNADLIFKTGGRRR
UniProt O15234: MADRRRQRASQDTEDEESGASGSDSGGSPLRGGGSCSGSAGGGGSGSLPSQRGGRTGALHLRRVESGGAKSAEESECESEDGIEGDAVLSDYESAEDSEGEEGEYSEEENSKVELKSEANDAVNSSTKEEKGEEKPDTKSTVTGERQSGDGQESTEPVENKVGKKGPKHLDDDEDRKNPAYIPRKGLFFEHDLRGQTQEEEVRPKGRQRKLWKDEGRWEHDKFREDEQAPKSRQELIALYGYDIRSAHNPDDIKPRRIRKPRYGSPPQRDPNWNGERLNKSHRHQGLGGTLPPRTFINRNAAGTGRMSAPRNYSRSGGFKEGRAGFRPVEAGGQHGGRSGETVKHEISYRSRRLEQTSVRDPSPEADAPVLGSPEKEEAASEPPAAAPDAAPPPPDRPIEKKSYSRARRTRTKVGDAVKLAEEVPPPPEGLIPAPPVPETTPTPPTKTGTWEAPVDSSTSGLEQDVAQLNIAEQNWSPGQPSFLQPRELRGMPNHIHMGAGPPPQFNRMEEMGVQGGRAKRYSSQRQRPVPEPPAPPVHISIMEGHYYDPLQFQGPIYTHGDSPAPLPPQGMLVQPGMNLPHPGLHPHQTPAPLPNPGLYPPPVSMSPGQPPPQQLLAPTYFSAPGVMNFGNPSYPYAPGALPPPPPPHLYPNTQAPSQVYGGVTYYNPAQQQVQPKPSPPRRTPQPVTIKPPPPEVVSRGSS
UniProt P46108: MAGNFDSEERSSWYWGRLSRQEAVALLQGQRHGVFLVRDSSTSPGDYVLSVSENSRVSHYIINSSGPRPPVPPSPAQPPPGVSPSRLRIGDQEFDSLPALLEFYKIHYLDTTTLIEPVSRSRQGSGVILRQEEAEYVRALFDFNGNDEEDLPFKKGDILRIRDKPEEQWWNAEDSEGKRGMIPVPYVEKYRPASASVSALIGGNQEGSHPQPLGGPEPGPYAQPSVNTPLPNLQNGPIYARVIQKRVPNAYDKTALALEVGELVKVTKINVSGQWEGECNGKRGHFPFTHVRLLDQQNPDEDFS
UniProt P46109: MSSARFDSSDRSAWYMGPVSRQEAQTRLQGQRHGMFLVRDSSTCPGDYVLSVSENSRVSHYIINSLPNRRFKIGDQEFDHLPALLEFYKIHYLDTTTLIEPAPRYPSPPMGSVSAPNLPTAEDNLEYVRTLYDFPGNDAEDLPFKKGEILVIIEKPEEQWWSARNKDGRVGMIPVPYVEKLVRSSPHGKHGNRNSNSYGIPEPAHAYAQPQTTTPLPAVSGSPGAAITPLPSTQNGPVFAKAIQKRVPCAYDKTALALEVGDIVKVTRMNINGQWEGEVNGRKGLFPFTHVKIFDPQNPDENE
UniProt O00571: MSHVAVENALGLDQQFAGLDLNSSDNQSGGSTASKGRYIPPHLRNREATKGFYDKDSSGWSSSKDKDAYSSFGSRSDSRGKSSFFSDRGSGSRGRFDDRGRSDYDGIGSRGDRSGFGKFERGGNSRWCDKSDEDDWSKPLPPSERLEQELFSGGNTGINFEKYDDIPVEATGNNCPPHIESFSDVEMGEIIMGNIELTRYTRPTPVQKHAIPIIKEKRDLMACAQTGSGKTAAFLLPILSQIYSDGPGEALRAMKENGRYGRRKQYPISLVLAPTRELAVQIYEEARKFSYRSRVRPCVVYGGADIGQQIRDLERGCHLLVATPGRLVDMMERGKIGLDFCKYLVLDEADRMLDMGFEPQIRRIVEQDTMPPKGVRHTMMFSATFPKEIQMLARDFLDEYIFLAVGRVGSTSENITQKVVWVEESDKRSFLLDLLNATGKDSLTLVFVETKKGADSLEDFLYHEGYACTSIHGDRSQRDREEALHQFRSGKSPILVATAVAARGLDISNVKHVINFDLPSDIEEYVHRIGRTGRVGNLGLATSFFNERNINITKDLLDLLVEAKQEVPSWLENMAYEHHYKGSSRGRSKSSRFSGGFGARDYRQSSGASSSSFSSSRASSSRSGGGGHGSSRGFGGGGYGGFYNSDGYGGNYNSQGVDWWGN
UniProt P25685: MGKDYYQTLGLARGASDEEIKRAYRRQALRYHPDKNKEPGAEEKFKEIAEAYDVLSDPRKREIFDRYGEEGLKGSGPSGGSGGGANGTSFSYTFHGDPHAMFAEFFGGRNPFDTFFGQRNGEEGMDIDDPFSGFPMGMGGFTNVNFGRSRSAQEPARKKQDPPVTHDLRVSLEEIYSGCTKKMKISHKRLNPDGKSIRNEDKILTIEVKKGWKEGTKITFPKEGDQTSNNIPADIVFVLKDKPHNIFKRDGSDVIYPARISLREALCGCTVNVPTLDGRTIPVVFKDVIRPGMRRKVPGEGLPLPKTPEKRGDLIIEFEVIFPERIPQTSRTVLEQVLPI
UniProt P78344: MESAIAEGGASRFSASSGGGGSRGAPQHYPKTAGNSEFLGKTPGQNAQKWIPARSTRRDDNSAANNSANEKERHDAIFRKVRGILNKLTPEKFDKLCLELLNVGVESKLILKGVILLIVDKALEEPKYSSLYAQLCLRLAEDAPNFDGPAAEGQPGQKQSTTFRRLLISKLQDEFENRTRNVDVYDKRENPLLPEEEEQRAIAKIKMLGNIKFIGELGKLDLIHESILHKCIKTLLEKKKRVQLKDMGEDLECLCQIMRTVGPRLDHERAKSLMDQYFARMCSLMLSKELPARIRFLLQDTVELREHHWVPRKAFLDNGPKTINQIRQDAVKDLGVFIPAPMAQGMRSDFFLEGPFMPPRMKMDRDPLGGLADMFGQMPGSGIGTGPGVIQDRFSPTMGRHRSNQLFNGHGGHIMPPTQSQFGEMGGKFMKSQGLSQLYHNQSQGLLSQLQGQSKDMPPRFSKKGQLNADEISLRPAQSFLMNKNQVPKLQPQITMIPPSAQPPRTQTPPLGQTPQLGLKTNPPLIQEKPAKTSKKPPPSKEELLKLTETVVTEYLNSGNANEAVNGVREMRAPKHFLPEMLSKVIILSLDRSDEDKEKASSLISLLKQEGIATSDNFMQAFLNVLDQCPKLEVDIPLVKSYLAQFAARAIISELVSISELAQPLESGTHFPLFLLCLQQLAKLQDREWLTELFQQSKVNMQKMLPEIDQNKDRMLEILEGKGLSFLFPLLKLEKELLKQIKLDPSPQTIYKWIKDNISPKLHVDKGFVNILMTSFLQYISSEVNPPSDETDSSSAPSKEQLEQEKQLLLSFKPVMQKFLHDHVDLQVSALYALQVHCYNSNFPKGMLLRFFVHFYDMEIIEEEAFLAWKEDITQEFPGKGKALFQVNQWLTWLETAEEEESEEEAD
UniProt P61326: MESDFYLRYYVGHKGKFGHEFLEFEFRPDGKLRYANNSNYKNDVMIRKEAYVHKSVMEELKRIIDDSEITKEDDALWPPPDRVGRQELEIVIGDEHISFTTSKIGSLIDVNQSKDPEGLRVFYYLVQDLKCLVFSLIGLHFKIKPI
UniProt Q8IZH2: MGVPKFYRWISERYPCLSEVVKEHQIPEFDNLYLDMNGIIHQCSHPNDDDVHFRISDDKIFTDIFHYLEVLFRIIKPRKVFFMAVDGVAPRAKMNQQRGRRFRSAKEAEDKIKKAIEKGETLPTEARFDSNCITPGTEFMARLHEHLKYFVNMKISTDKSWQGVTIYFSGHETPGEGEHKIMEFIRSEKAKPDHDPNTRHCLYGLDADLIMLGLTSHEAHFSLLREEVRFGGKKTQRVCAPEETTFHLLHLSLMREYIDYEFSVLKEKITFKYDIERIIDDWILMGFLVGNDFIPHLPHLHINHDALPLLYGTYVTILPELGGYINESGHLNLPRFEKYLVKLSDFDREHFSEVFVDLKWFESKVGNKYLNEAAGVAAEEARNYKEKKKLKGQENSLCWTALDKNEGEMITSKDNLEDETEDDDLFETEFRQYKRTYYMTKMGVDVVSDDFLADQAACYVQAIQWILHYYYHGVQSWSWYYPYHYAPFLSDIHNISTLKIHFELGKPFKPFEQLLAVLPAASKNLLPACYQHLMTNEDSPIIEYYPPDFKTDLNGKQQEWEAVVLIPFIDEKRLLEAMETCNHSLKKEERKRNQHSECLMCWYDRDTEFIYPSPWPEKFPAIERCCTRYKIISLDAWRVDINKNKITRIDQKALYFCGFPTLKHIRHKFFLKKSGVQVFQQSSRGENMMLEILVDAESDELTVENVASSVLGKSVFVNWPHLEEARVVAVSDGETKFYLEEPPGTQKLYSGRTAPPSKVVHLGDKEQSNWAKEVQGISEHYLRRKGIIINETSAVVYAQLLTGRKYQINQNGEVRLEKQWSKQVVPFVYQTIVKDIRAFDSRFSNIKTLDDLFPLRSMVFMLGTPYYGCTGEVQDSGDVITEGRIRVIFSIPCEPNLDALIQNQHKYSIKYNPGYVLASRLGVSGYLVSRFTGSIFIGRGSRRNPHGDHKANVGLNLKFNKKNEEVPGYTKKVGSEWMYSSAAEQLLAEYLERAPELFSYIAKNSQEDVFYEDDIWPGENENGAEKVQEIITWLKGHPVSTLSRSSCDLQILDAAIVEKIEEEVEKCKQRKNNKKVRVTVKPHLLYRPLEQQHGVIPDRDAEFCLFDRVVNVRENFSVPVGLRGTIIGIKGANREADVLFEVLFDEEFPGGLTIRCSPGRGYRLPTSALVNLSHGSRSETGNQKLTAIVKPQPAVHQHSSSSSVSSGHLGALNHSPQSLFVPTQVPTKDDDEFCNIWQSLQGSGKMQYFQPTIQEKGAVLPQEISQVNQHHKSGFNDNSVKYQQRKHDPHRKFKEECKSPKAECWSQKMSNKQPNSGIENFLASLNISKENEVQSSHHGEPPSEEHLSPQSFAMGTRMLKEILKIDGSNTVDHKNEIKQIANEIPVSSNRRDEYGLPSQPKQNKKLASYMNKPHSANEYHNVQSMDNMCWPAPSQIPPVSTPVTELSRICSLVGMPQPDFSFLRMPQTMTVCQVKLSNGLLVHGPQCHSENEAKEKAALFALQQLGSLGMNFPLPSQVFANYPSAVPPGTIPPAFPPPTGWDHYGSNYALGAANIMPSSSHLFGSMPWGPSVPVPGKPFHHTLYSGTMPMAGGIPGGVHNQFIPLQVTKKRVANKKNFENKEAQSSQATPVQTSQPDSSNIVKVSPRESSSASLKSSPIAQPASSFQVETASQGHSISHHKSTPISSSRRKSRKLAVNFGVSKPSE

Assay [1] addresses T1, HA-BirA(R118G)-tagged SMG5, RNAi-resistant (UniProt Q9UPR3).
T1 sequence: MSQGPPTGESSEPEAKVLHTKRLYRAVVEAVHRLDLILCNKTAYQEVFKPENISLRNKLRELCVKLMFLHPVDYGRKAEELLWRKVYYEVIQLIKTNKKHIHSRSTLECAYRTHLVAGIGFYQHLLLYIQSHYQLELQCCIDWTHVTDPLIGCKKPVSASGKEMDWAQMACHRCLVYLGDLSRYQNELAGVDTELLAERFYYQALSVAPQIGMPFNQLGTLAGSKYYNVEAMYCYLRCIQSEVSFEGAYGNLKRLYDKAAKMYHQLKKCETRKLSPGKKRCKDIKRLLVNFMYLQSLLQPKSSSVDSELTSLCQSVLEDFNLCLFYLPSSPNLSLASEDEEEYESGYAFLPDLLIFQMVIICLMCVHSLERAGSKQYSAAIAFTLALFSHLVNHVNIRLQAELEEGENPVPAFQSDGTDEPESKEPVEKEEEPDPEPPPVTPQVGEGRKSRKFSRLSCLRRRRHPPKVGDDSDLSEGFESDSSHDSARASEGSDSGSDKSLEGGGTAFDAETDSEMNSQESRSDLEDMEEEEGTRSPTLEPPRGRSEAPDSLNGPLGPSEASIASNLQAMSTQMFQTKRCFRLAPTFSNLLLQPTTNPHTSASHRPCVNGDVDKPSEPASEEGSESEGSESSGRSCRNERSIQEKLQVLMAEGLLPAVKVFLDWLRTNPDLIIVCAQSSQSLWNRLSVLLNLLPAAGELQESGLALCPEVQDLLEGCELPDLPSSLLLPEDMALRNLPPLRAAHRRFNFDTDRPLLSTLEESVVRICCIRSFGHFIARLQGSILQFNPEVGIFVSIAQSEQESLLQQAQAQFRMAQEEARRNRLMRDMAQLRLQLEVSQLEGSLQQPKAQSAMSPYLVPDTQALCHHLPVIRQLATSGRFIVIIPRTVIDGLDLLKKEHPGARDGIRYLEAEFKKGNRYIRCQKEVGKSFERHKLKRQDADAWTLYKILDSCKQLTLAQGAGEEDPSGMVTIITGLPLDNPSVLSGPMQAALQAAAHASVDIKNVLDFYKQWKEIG
Put plainly: co-IP + proximity labelling; tandem purification: HB*-bait in 293T cells, 50 μM biotin for six hours; anti-HA magnetic beads, then streptavidin capture of the biotinylated proteins in the precipitate; LC-MS/MS.

For assay [2], the target named is T1, HA-BirA(R118G)-tagged SMG5, RNAi-resistant. Briefly: proximity labelling; BioID: HB*-bait transiently expressed in 293T cells, 50 μM biotin for 16 hours; streptavidin capture; LC-MS/MS; kept: at least two exclusive unique peptides and more than two times the normalized spectrum count of the free HB* control.
In assay [3] the target is T2, HA-BirA(R118G)-tagged UPF1, RNAi-resistant (UniProt Q92900).
T2 sequence: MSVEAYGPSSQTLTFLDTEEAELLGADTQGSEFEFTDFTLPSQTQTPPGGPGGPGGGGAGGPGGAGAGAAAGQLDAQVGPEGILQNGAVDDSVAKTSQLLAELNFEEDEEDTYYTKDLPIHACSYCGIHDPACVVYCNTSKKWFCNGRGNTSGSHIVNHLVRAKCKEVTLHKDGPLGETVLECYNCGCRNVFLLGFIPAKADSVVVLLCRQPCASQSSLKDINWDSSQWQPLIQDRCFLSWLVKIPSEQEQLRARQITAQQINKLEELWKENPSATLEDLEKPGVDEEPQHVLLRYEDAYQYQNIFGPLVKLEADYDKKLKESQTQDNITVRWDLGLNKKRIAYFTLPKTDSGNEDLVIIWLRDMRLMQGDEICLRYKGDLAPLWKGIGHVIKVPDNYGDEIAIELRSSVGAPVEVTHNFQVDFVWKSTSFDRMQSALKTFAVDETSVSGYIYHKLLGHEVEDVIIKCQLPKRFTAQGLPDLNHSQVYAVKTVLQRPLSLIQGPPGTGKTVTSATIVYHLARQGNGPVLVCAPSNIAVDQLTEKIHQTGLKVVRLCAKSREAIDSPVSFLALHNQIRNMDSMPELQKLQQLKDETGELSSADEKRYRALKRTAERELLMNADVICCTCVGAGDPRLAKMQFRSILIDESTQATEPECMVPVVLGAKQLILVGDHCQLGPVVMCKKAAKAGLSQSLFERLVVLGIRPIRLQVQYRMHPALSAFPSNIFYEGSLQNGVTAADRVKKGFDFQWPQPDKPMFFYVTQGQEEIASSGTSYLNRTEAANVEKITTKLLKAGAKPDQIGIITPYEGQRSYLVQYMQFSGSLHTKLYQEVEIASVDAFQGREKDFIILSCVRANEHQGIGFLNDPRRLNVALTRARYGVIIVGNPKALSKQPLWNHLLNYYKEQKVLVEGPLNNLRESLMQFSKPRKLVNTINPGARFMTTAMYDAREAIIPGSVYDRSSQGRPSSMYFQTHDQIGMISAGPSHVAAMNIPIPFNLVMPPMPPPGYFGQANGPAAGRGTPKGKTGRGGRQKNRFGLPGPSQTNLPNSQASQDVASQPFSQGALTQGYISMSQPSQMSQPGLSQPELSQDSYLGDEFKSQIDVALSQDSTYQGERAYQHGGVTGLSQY
The assay is described as above.

The target in assay [4] is HA-BirA(R118G)-tagged UPF2, RNAi-resistant (UniProt Q9HAU5). The description is as above.
The target in assay [5] is T2, HA-BirA(R118G)-tagged UPF1, RNAi-resistant. Put plainly: co-IP + proximity labelling; tandem purification: HB*-bait in 293T cells, 50 μM biotin for six hours; anti-HA magnetic beads, then streptavidin capture of the biotinylated proteins in the precipitate; LC-MS/MS.
The target of assay [6] is HA-BirA(R118G)-tagged UPF2, RNAi-resistant (UniProt Q9HAU5). The assay is described as above.
Assay [7] concerns the target T2, HA-BirA(R118G)-tagged UPF1, RNAi-resistant. Put plainly: proximity labelling; BioID: HB*-bait transiently expressed in 293T cells at near endogenous levels, 50 μM biotin for 16 hours; biotinylated proteins captured on magnetic streptavidin beads; western blot.
Assay [8] addresses HA-BirA(R118G)-tagged UPF2, RNAi-resistant (UniProt Q9HAU5). The assay is described as above.
Assay [9] shares this target. Put plainly: proximity labelling; BioID: HB*-bait transiently expressed in 293T cells, 50 μM biotin for 16 hours; streptavidin capture; LC-MS/MS; kept: at least two exclusive unique peptides and more than two times the normalized spectrum count of the free HB* control. The source holds these as a separate data set.

Regarding CASC3 (from UniProt O15234 1-703), in [1], the binding result is “no binding”.
CRK (from UniProt P46108 1-304): the binding result in [2], in assay [3] and in assay [4] was “binds” each time.
Take CRKL (from UniProt P46109 1-303): the binding entry in assay [4] was “binds”.
On to DDX3X (from UniProt O00571 1-662), for which the binding entry in [1], in [5] and in assay [6] was “binds” in each case.
As for DNAJB1 (from UniProt P25685 1-340), the binding result in assay [2], in assay [3] and in [4] was “binds” each time.
For EIF4A3 (from UniProt P38919 1-411), the binding result in assay [1] is given as “no binding”.
For EIF4G2 (from UniProt P78344 1-907), the binding entry in assay [2], in [3] and in [4] was “binds” throughout.
For the molecule MAGOH (from UniProt P61326 1-146), the binding result in assay [1] is listed as “no binding”.
As to NBAS (from UniProt A2RRP1 1-2371), the binding entry in assay [4] is recorded as “no binding”.
For SMG1 (from UniProt Q96Q15 1-3661), the values for the binding entry in [7] and in assay [3] were “binds weakly” and “binds”, respectively.
In the case of UPF2 (from UniProt Q9HAU5 1-1272), the binding entry in [7] and in assay [3] was “binds” throughout.
Regarding XRN1 (from UniProt Q8IZH2 1-1706), the binding entry in [2] is recorded as “binds”; in assay [3], “binds”; in [4], “binds weakly”.

B1: UPF3B (protein, UniProt Q9BZI7 1-483)
chain: MKEEKEHRPKEKRVTLLTPAGATGSGGGTSGDSSKGEDKQDRNKEKKEALSKVVIRRLPPTLTKEQLQEHLQPMPEHDYFEFFSNDTSLYPHMYARAYINFKNQEDIILFRDRFDGYVFLDNKGQEYPAIVEFAPFQKAAKKKTKKRDTKVGTIDDDPEYRKFLESYATDNEKMTSTPETLLEEIEAKNRELIAKKTTPLLSFLKNKQRMREEKREERRRREIERKRQREEERRKWKEEEKRKRKDIEKLKKIDRIPERDKLKDEPKIKVHRFLLQAVNQKNLLKKPEKGDEKELDKREKAKKLDKENLSDERASGQSCTLPKRSDSELKDEKPKRPEDESGRDYREREREYERDQERILRERERLKRQEEERRRQKERYEKEKTFKRKEEEMKKEKDTLRDKGKKAESTESIGSSEKTEKKEEVVKRDRIRNKDRPAMQLYQPGARSRNRLCPPDDSTKSGDSAAERKQESGISHRKEGGEE
On to B1, for which the binding entry in [8] and in [9] was “binds” each time.

B2: UPF1 (protein, UniProt Q92900 1-1129)
chain: T2 sequence
Regarding B2, the binding entry in assay [9] is reported as “binds”.

The values are drawn from article PMC4774922.
